Test results from PubChem BioAssay AID493014 (National Center for Advancing Translational Sciences (NCATS), 2011).
Values joined by “and” are separate entries in the source; they are usually repeats but may differ in a detail not shown here. Equal values may be shown once. This is one part of the list. These are further read-outs of the screen, such as a control signal, another cell line or another target. No call is given for them. Compounds called inactive in the main read-out are mostly missing here. Words in brackets tell the shape of the fitted curve; partial curves, single points and poor fits give uncertain potencies.

Assay: qHTS Assay to Find Inhibitors of Chronic Active B-Cell Receptor Signaling
Conditions: ABC-DLBCL IkBa-CBG/CBR reporter, luminescence ratio (green luciferase fused to IkBa over red control in TMD8 lymphoma cells), 4 h
Procedure, shortened: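 Compounds up to 46 uM were incubated four hours with TMD8 cells whose green CBG68 luciferase is fused to IkappaBalpha; red CBR luminescence normalised the signal, and concentration-effect curves were fitted to fusion, red and ratio data.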

[1] = measured here: CBR red luminescence, cell number
[2] = measured here: IkBa-CBG green luminescence

Compound | AC50 [1] | AC50 [2]
C=CCn1c(=O)c2ccccc2n2c(SCC(C)=O)nnc12 | 3.16 µM [falling, single point] | –
Cc1ccc(N=Cc2c(O)c3ccccc3oc2=O)cc1F | 0.794 µM [falling, full curve] | –
O=C(Nc1cccc(Cl)c1)c1ccncc1 | 14.6 µM [rising, single point] | –
Cc1cc(Cl)n2ncc(-c3ccccc3)c2n1 | 12.6 µM [falling, single point] | –
O=C(CNc1ccc(Cl)cc1)c1ccc(Br)cc1 | 31.6 µM [rising, single point] | –
COc1ccc(/C=C/C=C2\N=C(SC)SC2=O)cc1 | 5.17 µM [rising, partial curve] | –
N#Cc1ccsc1NC(=O)CN1CCN(S(=O)(=O)c2cc(Cl)ccc2Cl)CC1 | 4.61 µM [rising, full curve, poor fit] | –
CCC(c1nnnn1C1CCCC1)N(Cc1cccs1)Cc1cc2cccc(C)c2[nH]c1=O (stereo not drawn) | 3.16 µM [falling, full curve] | –
C=C1C(=O)O[C@H]2C1CC[C@@](C)(O)C13C=CC(C)(C21)C1(C3)C(=O)O[C@@H]2C3C(C)=CCC3[C@](C)(O)C[C@H](OC(C)=O)C21 (stereo partly drawn) | 18.4 µM [falling, single point] | –
O=C(NC1CC1)C1CCN(C2CCN(C(=O)/C=C/c3cccs3)CC2)CC1 | 35.5 µM [falling, single point] | –
CC(C)=C1SC(N2CCN(Cc3ccccc3)CC2)=NC1=O | 0.316 µM [falling, full curve, poor fit] | –
COc1ccc(NS(=O)(=O)c2ccc(C)c(NC(=O)c3ccc(C)c(S(=O)(=O)N4CCOCC4)c3)c2)cc1 | 2.91 µM [rising, single point] | –
CC1=Nc2cc(C(=O)NC3CCCC3)ccc2Sc2ccc(Cl)cc21 | 3.55 µM [rising, full curve] | 7.94 µM [falling, partial curve]
CCOC(=O)c1cnn(-c2cc(Oc3ccccc3C)ncn2)c1N | 29.1 µM [rising, single point] | –
Cc1[nH]c2ccccc2c1/C=N/Nc1ccccc1[N+](=O)[O-] | 5.01 µM [rising, full curve, poor fit] | –
O=C(CN1CCN(S(=O)(=O)c2ccc(Br)cc2)CC1)N/N=C/c1cc([N+](=O)[O-])ccc1Cl | – | 29.1 µM [rising, partial curve, poor fit]
C=CCNC(=O)c1onc(CSc2ccccc2C)c1C(=O)O | 8.91 µM [falling, partial curve] | –
c1ccc(-c2nnc(-c3ccccn3)nc2NC2CCCCC2)cc1 | 18.4 µM [falling, single point] | –
COc1ccc(Cl)cc1NC(=O)CC(C)c1ccccc1 (stereo not drawn) | 0.058 µM [rising, full curve, poor fit] | –
CCc1ccc(OC)c(-c2csc(N)n2)c1 | 6.31 µM [falling, single point] | –

Record cards, from the list above. Order of values: AC50 [1] | AC50 [2]
CCOC(=O)c1cnn(-c2cc(Oc3ccccc3C)ncn2)c1N in the list: 29.1 µM [rising, single point] | –
O=C(Nc1cccc(Cl)c1)c1ccncc1 in the list: 14.6 µM [rising, single point] | –

Remaining list, next part.

Compound | AC50 [1] | AC50 [2]
Cc1cc(=O)n2[nH]c(-c3ccc(C(C)(C)C)cc3)cc2n1 | 164 nM [falling, full curve, poor fit] and 5.62 µM [rising, full curve, poor fit] | –
CC(Sc1nnc2ccccn12)C(=O)NCc1ccc2c(c1)OCO2 (stereo not drawn) | 15.8 µM [falling, partial curve, poor fit] | –
Cc1ccccc1NC(=O)Cc1nnc(NC(=O)Nc2ccccc2F)s1 | 0.158 µM [falling, full curve, poor fit] | –
O=C1C=C(c2cnc3ccccc3c2)C[C@@H](c2ccc3c(c2)OCO3)C1 | 0.731 µM [rising, full curve] | –
OC(CNc1nc2ccccc2s1)c1ccccc1 (stereo not drawn) | 18.4 µM [falling, partial curve, poor fit] | –
Cc1ccc(Cl)cc1N1CCN(S(=O)(=O)c2cn(C)cn2)CC1 | 3.98 µM [rising, full curve, poor fit] | –
CC(NC(=O)/C(C#N)=C/c1ccc([N+](=O)[O-])o1)c1ccccc1 (stereo not drawn) | 22.4 µM [falling, single point] | 35.5 µM [rising, partial curve, poor fit]
Cc1cc(NC(=O)c2ccc(N3C(=O)C4C5C=CC(C5)C4C3=O)cc2)no1 (stereo not drawn) | 1.12 µM [falling, full curve, poor fit] | 0.562 µM [rising, full curve, poor fit]
ClC1(Cl)CC1Cn1c(C2CC2)nc2ccccc21 (stereo not drawn) | 35.5 µM [rising, single point] | –
COc1ccccc1CNC(=O)CN1C(=O)N(C)C2(CCCCC2)C1=O | 0.58 µM [rising, full curve, poor fit] | –
Cc1nn(C)c(C(=O)NN)c1Cl | 7.94 µM [falling, partial curve] | –
Nc1nc(-c2ccco2)nn1C(=O)c1ccc(F)cc1 | 1.12 µM [falling, partial curve] | –
Cc1cc(C(=O)Nc2nnc(-c3ccccc3)s2)no1 | 1 µM [falling, full curve] | –
COc1ccccc1NCCC(=O)OCC(=O)NC1CC1 | 29.1 µM [falling, single point] | –
COCCNc1nc(C)cc(-c2cc(C(=O)NC3CCCC3)on2)n1 | 4.47 µM [falling, partial curve] | –
O=C(NC12CC3CC(CC(C3)C1)C2)c1ccccc1O | 20.6 µM [rising, partial curve] | –
Cc1ccc(N2C(=O)CC(Cc3cccc(C)c3)C2=O)cc1 (stereo not drawn) | 0.1 µM [rising, full curve, poor fit] | –
CC(=O)Oc1ccc(-c2nc3ccccc3c(=O)o2)cc1 | 12.6 µM [falling, partial curve] | –
CCN1CCN(c2ccc(NC(=O)c3cc(S(=O)(=O)N4CCCC4)ccc3Cl)cc2)CC1 | 23.1 µM [rising, partial curve, poor fit] | –
CCOC(=O)c1c(NC(=O)c2ccccc2N(C)S(=O)(=O)c2ccccc2)sc2c1CCCC2 | 29.1 µM [falling, single point] | –
